Drawing on PubChem BioAssay AID248 (DTP/NCI, 2004), this text covers T/C for three molecules.

For the experiment, the system named is L1210 leukemia ip in BDF1 mice, survival T/C. Description: NCI In Vivo Anticancer Drug Screen. Data for tumor model L1210 Leukemia (intraperitoneal) in B6D2F1 (BDF1) mice. To be noted: T/C endpoint: mean survival time, higher T/C = longer survival.

SMILES strings stand for the structures. The list does not hold the whole screen: its compounds were picked by chemical class. Not every dose and run of a compound is shown. T/C gives the treated animals as a percentage of the vehicle group. Where survival is the endpoint, this PubChem deposit counts one and a half times the control or more as active, and values a quarter to a half above the control carry no call in these data; other NCI protocols may use other cut-offs. Some entries show no survivor count and are marked so; the dose need not have been tolerated. Schedule codes are those of the source, taken here to give the interval after Q, in days (D) or hours (H), and the number of doses after X. Some entries were tested several times; the values are given in rising order. Some schedules carry Z or #; the key to these is not given.

In the case of `ClCCN(CCCl)Cc1ccc(Cl)cc1`, the T/C is, setting by setting: (dose: 5.0 mg/kg/injection, schedule: Q01DX001 (ip), vehicle: carboxymethylcellulose (CMC)) 105 % of control [survivor count not shown]; (dose: 10.0 mg/kg/injection, schedule: Q01DX001 (ip), vehicle: carboxymethylcellulose (CMC)) 105 % of control [survivor count not shown]; (dose: 10.0 mg/kg/injection, schedule: Q04DX003 (ip), vehicle: carboxymethylcellulose (CMC)) 116 % of control [survivor count not shown]; (dose: 20.0 mg/kg/injection, schedule: Q01DX001 (ip), vehicle: carboxymethylcellulose (CMC)) 107 % of control [survivor count not shown]; (dose: 20.0 mg/kg/injection, schedule: Q04DX003 (ip), vehicle: carboxymethylcellulose (CMC)) 121 % of control [survivor count not shown]; (dose: 40.0 mg/kg/injection, schedule: Q01DX001 (ip), vehicle: carboxymethylcellulose (CMC)) 112 % of control [survivor count not shown]. The T/C (dose: 40.0 mg/kg/injection, schedule: Q04DX003 (ip), vehicle: carboxymethylcellulose (CMC)) was 117 % of control [survivor count not shown].
For `CCC(C)(O)C#CCN(CCCl)CCCl` (stereo not given), the T/C runs as follows: (dose: 2.2 mg/kg/injection, schedule: Q01DX001 (ip), vehicle: saline) 109 % of control [survivor count not shown]; (dose: 5.0 mg/kg/injection, schedule: Q01DX009 (ip), vehicle: saline) 119 % of control [survivor count not shown]; (dose: 5.5 mg/kg/injection, schedule: Q01DX001 (ip), vehicle: saline) 115 % of control [survivor count not shown]; (dose: 6.25 mg/kg/injection, schedule: Q01DX001 (ip), vehicle: saline) 117 % of control [survivor count not shown]; (dose: 6.25 mg/kg/injection, schedule: Q01DX009 (ip), vehicle: saline) 105 % of control [survivor count not shown]; (dose: 7.5 mg/kg/injection, schedule: Q01DX009 (ip), vehicle: saline) 130 % of control [survivor count not shown]. Besides, the T/C runs as follows: (dose: 11.0 mg/kg/injection, schedule: Q01DX001 (ip), vehicle: saline) 113 [survivor count not shown], 124 [survivor count not shown], 136 % of control [survivor count not shown]; (dose: 11.0 mg/kg/injection, schedule: Q01DX009 (ip), vehicle: saline) 131 % of control [survivor count not shown]; (dose: 12.5 mg/kg/injection, schedule: Q01DX001 (ip), vehicle: saline) 111 % of control [survivor count not shown]; (dose: 12.5 mg/kg/injection, schedule: Q01DX009 (ip), vehicle: saline) 103 % of control [survivor count not shown]; (dose: 16.5 mg/kg/injection, schedule: Q01DX009 (ip), vehicle: saline) 98 % of control [survivor count not shown]; (dose: 16.6 mg/kg/injection, schedule: Q01DX001 (ip), vehicle: saline) 120 [survivor count not shown] and 138 % of control [survivor count not shown]. Moreover, the T/C was 111 [survivor count not shown], 117 [survivor count not shown], 135 % of control [survivor count not shown] (dose: 25.0 mg/kg/injection, schedule: Q01DX001 (ip), vehicle: saline); 87 [survivor count not shown] and 129 % of control [survivor count not shown] (dose: 37.5 mg/kg/injection, schedule: Q01DX001 (ip), vehicle: saline).
Take `COc1cccc(N(CCCl)CCCl)c1OC`: the T/C is 112 % of control [survivor count not shown] (dose: 12.0 mg/kg/injection, schedule: Q01DX Z (ip), vehicle: carboxymethylcellulose (CMC)); 88 % of control [survivor count not shown] (dose: 15.0 mg/kg/injection, schedule: Q01DX Z (oral), vehicle: methylcellulose (MC)); 106 % of control [survivor count not shown] (dose: 24.0 mg/kg/injection, schedule: Q01DX Z (ip), vehicle: carboxymethylcellulose (CMC)); 94 % of control [survivor count not shown] (dose: 30.0 mg/kg/injection, schedule: Q01DX Z (oral), vehicle: methylcellulose (MC)); 104 % of control [survivor count not shown] (dose: 36.0 mg/kg/injection, schedule: Q01DX Z (ip), vehicle: carboxymethylcellulose (CMC)); 114 % of control [survivor count not shown] (dose: 54.0 mg/kg/injection, schedule: Q01DX Z (ip), vehicle: carboxymethylcellulose (CMC)). In addition, the T/C is 97 % of control [survivor count not shown] (dose: 60.0 mg/kg/injection, schedule: Q01DX Z (oral), vehicle: methylcellulose (MC)); 124 % of control [survivor count not shown] (dose: 80.0 mg/kg/injection, schedule: Q01DX Z (ip), vehicle: carboxymethylcellulose (CMC)); 93 % of control [survivor count not shown] (dose: 120.0 mg/kg/injection, schedule: Q01DX Z (oral), vehicle: methylcellulose (MC)).
